According to US11192903B2, “Zirconium-89 oxine complex as a cell labeling agent for positron emission tomography” (The United States of America, as represented by the …, priority 2014, dated 2021):

Key:
BM cells = conditions: 11.0-55.5 kBq/10^6 cells, PBS, 20 minutes

c1cnc2c([O][89Zr]([O]c3cccc4cccnc34)([O]c3cccc4cccnc34)[O]c3cccc4cccnc34)cccc2c1 [^89Zr-oxine complex]
labeling efficiency (EL4 cells; 37° C., all media): low under all media conditions | labeling efficiency (EL4 cells; complete cell media, RT or 4° C.): about two thirds of that achieved in PBS | labeling efficiency (EL4 cells; serum free medium, RT or 4° C., vs PBS): did not significantly decrease the labeling compared to PBS | labeling efficiency (CTLs; activated CTLs): 21% | labeling efficiency (CTLs; naïve T cells (CTLs)): 11% | cell-associated radioactivity (BM cells): 3.0-16.7 kBq | labeling efficiency (BM cells): 24-30%

Where two headings read alike, the source gives them in different places.
